Results: PubChem BioAssay AID504648 (National Center for Advancing Translational Sciences (NCATS), 2011)
The campaign covered roughly 390,000 compounds. About 610 (0.16%) were called active. This list was built around the results that the source calls inconclusive (neither active nor inactive); the mix of calls is not that of the screen. Calls come from the whole dose curve; as a rule, active = well fitted inhibition curve with a large enough effect; inconclusive = small, poorly fitted or top-dose-only effect, or effect the other way, or another doubt; inactive = no such curve, though single readings can be large or run the other way. Potencies of inconclusive entries are doubtful fits and often do not repeat.

assay: Nrf2 qHTS screen for inhibitors: counterscreen for cytotoxicity; conditions: A549 ARE-Fluc cells, CellTiter-Fluor viability, 18-24 h; activity change, negative = cytotoxicity: at 46 µM (top of the series)
In short: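 A549 ARE_Fluc cells in 5% FBS OPTI-MEM were exposed to compounds in concentration-response for 18-24 h at 37 deg C. Viability was read by CellTiter-Fluor fluorescence (Ex 405/Em 525) after 30 min, before the luciferase read.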
% is set by controls: 0 for no effect and ±100 for the full control effect; potency is the fitted concentration of half-maximal effect.

SMILES | Potency | activity change, negative = cytotoxicity
Fc1ccc(C2=CC(c3ccc(Br)o3)n3ncnc3N2)cc1 (stereo unspecified) | inconclusive: 18.4 µM [activator, partial curve] | –
CC(=O)N1CCN(c2ccc(OC[C@H]3CO[C@](Cn4ccnc4)(c4ccc(Cl)cc4Cl)O3)cc2)CC1 | inactive | –
COc1ccc(C(=O)NNC(=S)NC(=O)c2cc(-c3ccccc3)nc3ccccc23)cc1 | inconclusive: 18.4 µM [falling, partial curve, poor fit] | –
Cc1ccc(NC(=O)COc2cccc3c2OC(C)(C)C3)c(O)c1 | – | inactive: -4.8%
Cc1c(C(=O)Nc2ccc(-c3nnc4n3CCCCC4)cc2)oc2ccc(Br)cc12 | – | inactive: -12%
O=C(c1cccc(F)c1)N1CCN(c2cc(N3CCCCC3)c(F)cc2[N+](=O)[O-])CC1 | inconclusive: 18.4 µM [falling, single point] | –
COc1ccccc1-c1nnc(-c2ccc(C)cc2)o1 | – | inactive: 2.21%
COc1cc(NC(=S)NCCC(c2ccccc2)c2ccccc2)cc(OC)c1 | inconclusive: 29.1 µM [falling, single point] | –
CN1CCN(S(=O)(=O)c2cccc(C(=O)Nc3nc(-c4ccccc4)cs3)c2)CC1 | – | inactive: 14.2%
COc1ccc(N(C)C(=O)c2cc3c(s2)-c2ccccc2OC3)cc1 | – | inconclusive: -62.2% [activator]
Cc1ccc(Cl)cc1N1CCN(C(=O)C2CCCN(Cc3nc(-c4cccc(Cl)c4)oc3C)C2)CC1 (stereo unspecified) | – | inactive: -18.3%
Cn1c2c(c3cnc4cc(Cl)ccc4c31)CN(Cc1ccc(Cl)cc1)CC2 | inconclusive: 18.4 µM [activator, partial curve, poor fit] | –
COc1cccc(-c2ccc3c(N)c(C(=O)Nc4ccccc4C)sc3n2)c1 | inconclusive: 29.1 µM [activator, single point] | –
COc1cccc(NC(=O)CCN2CCN(CCO)CC2)c1 | – | inactive: 0.56%
NC(=O)c1ccc(NC(=O)COC(=O)c2cc(S(=O)(=O)N3CCOCC3)ccc2N2CCCCC2)cc1 | – | inactive: 2.54%
CC(=O)Nc1ccc(S(=O)(=O)N(Cc2ccccc2)Cc2ccccc2)cc1 | – | inactive: -0.436%
O=C(N/N=C/c1ccc(O)cc1O)c1ccc(CN2C(=O)c3cccc4cccc2c34)cc1 | inconclusive: 18.4 µM [falling, partial curve, poor fit] | –
O=C(Nc1ccccc1)Nc1cc(OCC(F)(F)F)cc(OCC(F)(F)F)c1 | inconclusive: 16.4 µM [falling, single point] | –
COc1cc(-c2nnn(Cc3ccccc3C)n2)cc(OC)c1OC | – | inactive: 3.13%
COc1ccc(N2CCN(c3nc4c(C)cccn4c(=O)c3/C=C(\C#N)C(N)=O)CC2)cc1 | inconclusive: 23.1 µM [falling, partial curve, poor fit] | –
COc1cccc(/C=N/NC(=S)NCCc2ccccc2)c1 | inconclusive: 20.6 µM [activator, partial curve, poor fit] | –
CCOC(=O)c1cc(-c2ccc(C)cc2)n(CC(=O)Nc2ccc(OC)c(Cl)c2)c1C | inconclusive: 18.4 µM [falling, single point] | –
CCOc1cc2c(C#N)c(N3CCOCC3)nc(N)c2c(N)n1 | – | inactive: 0.679%

Four successive entries from above, quoted:
SMILES | Potency | activity change, negative = cytotoxicity
COc1ccc(N2CCN(c3nc4c(C)cccn4c(=O)c3/C=C(\C#N)C(N)=O)CC2)cc1 | inconclusive: 23.1 µM [falling, partial curve, poor fit] | –
COc1cccc(/C=N/NC(=S)NCCc2ccccc2)c1 | inconclusive: 20.6 µM [activator, partial curve, poor fit] | –
CCOC(=O)c1cc(-c2ccc(C)cc2)n(CC(=O)Nc2ccc(OC)c(Cl)c2)c1C | inconclusive: 18.4 µM [falling, single point] | –
CCOc1cc2c(C#N)c(N3CCOCC3)nc(N)c2c(N)n1 | – | inactive: 0.679%

Later entries:

SMILES | Potency | activity change, negative = cytotoxicity
O=C(c1ccccc1)c1cccc[n+]1[O-] | inconclusive: 29.1 µM [falling, single point] | –
CCOc1cc(Br)cc(C(c2c(C(=O)O)[nH]c3ccccc23)c2c(C(=O)O)[nH]c3ccccc23)c1O | – | inactive: -3.59%
O=C(COc1ccc(F)cc1)Nc1nnc(-c2ccncc2)s1 | – | inactive: 7.87%
Nc1nonc1C(=O)NCCNc1ncccc1[N+](=O)[O-] | inconclusive: 29.1 µM [falling, single point] | –
CCN(CC)c1ccc(C(=O)N2CCC(c3ccncc3)CC2)cc1 | – | inactive: 1.32%
O=C(Cn1cnc2c(cnn2-c2ccc(F)cc2)c1=O)NCc1ccco1 | inconclusive: 13 µM [falling, partial curve] | –
CCOc1ccc(CN2CCNC(=O)C2CC(=O)NCc2cc(C)n(C)n2)cc1 (stereo unspecified) | – | inactive: -7.33%
CCCCn1c(N)c(N(CC(C)C)C(=O)c2cc(-c3ccco3)nc3ccccc23)c(=O)[nH]c1=O | – | inactive: 2.06%
CCC1CCc2c(sc(NC(=O)C3c4ccccc4Oc4ccccc43)c2C#N)C1 (stereo unspecified) | – | inactive: -0.348%
O=S(=O)(c1ccc(Cl)c(Cl)c1)c1snnc1-c1ccccc1 | inconclusive: 20.6 µM [falling, single point] | –
CCC(CC)C1C(C#N)=C(N)Oc2cc(C)oc(=O)c21 (stereo unspecified) | – | inactive: -2.49%
CCCOc1ccccc1C1CC(=O)Nc2cc3c(cc21)OCCO3 (stereo unspecified) | inconclusive: 2.06 µM [falling, full curve] | –
CCCn1c(O)c(/C=C2\C=NN=C2c2ccccc2)sc1=S | inconclusive: 8.2 µM [falling, single point] | –
Cc1cc(C)c(S(=O)(=O)NCC(c2ccc(N(C)C)cc2)N2CCc3ccccc32)c(C)c1 (stereo unspecified) | – | inactive: 0.259%
Cc1ccccc1C(=O)NNC(=S)NC(=O)c1ccc(Cl)cc1Cl | inconclusive: 16.4 µM [falling, single point] | –
CCOc1ccccc1CNC(=O)CSc1n[nH]c(-c2ccccc2Cl)n1 | – | inactive: 16.6%
Cc1ccc(NC(=O)CN(C)CC(=O)Nc2cccc(F)c2)cc1S(=O)(=O)N1CCCCCC1 | inconclusive: 23.1 µM [falling, partial curve, poor fit] | –
CC1Cc2ccccc2N1CC(=O)NCc1ccccc1Cl (stereo unspecified) | inconclusive: 32.6 µM [activator, partial curve, poor fit] | –
CCCCCCCC(=O)NNC(=O)c1c(O)c2ccccc2n(CCC)c1=O | inconclusive: 25.9 µM [falling, partial curve, poor fit] | –
CC(C)(C)n1nc(Cc2cccc3ccccc23)c2c(N)ncnc21 | – | inactive: -22.3%
O=C(OCCC12CC3CC(CC(C3)C1)C2)c1ccc(NCc2cc(O)ccc2O)cc1 | inconclusive: 29.1 µM [falling, single point] | –
COCC1CCCN(C(=O)c2cc(COc3ccc(C(C)=O)cc3)on2)C1 (stereo unspecified) | – | inactive: 1.32%
CCOC(=O)c1c(NC(=O)C2c3ccccc3Oc3ccccc32)sc(C(C)=O)c1C | inconclusive: 14.6 µM [falling, partial curve, poor fit] | –
